This is an account of results in publication PMC6925144, “A prospective compound screening contest identified broader inhibitors for Sirtuin 1” (Scientific Reports, 2019).

Protein sequences, listed by entry. Tags and fused reporters are not part of them. Residues count along the entry.
UniProt Q96EB6, 2-747 limits assumed: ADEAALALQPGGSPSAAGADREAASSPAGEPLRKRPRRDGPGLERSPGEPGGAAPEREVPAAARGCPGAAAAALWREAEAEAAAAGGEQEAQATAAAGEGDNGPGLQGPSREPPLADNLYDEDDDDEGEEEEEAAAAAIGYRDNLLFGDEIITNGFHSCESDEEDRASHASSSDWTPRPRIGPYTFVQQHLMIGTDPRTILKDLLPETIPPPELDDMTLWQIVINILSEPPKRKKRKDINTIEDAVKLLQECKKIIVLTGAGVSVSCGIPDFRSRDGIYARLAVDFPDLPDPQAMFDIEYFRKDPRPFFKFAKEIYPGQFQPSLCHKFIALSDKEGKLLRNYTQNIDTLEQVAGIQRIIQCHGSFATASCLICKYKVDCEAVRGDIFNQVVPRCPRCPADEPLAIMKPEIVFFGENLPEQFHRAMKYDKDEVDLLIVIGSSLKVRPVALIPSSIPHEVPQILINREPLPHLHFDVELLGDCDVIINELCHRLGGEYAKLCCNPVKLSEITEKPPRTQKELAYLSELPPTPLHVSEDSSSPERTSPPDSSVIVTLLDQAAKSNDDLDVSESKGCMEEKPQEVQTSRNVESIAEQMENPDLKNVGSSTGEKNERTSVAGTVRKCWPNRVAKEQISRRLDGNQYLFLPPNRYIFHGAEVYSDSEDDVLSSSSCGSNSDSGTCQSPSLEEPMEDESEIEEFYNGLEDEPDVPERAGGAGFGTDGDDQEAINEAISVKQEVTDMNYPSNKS

The structures appear in SMILES notation. In all, about 3,200 compounds were measured (“TSA(without NAD+) / Primary screening (TSA) / delta Tm (K)”: median about -0.07, highest 2% from about 0.37 on). The list shows a part of the results.

This test has as its target NAD-dependent deacetylase Sirtuin 1 (human, UniProt Q96EB6). The experiment in a line: primary screen, delta tm. The settings on record: 10 µM. Also noted: single well (n = 1). The method in brief: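 Thermal shift of Sirtuin 1 measured without NAD+, compound at 10 µM (n = 1); value is ΔTm, with hits defined as ΔTm > 0.45 K or < −1.5 K. Hits retested at 5, 10, 20 µM (n = 4) and counterscreened on bovine carbonic anhydrase and ABL1 SH2 domain.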
As to `Cc1nc(C#N)c(C#N)n1Cc1cnn(-c2ccccc2)c1`, the “TSA(without NAD+) / Primary screening (TSA) / delta Tm (K)” value is given as -0.08 K. Then `O=C(CCCn1c(=O)oc2ccccc21)Nc1ccc(N2CCN(Cc3ccccc3)CC2)cc1`, with 0.02 K.

For `CCCn1c2c(c(=O)[nH]c1=O)C(=O)C(C)N2` (stereo not shown), the “TSA(without NAD+) / Primary screening (TSA) / delta Tm (K)” value is listed as -0.05 K.

For the compound `FC(F)(F)c1nnc2ccc(NC3CC3)nn12`, the “TSA(without NAD+) / Primary screening (TSA) / delta Tm (K)” value is recorded as -0.18 K. Take `Cc1ccc(C(=O)Nc2nc3ccc(NS(=O)(=O)c4ccc5c(c4)CCC(=O)N5)cc3s2)s1`: the “TSA(without NAD+) / Primary screening (TSA) / delta Tm (K)” value is listed as 0.66 K. Then `CC1CC(N(C)CCCOc2cccc(S(C)(=O)=O)c2)C(=O)O1` (stereo not shown), with -0.11 K; and `O=C1/C(=C/c2ccc(OC(F)F)cc2OC(F)F)Oc2cc(O)ccc21`, with 0.16 K; and `Cc1n[nH]c(=O)c(C(=O)NNC(=O)CC23CC4CC(CC(C4)C2)C3)c1C`, with 0.35 K.

Consider `Cc1nc(N2CCN(c3cccc(C(F)(F)F)c3)CC2)c2c3c(sc2n1)CCC3`, for which the “TSA(without NAD+) / Primary screening (TSA) / delta Tm (K)” value was 0.16 K. Then `Cc1nc(N2CCC(c3nnc(N(C)C)[nH]3)CC2)c2c3c(sc2n1)CCCC3`, with -0.14 K; and `Cn1c(-c2ccccc2)c(C(=O)CC#N)c2ccccc21`, with -0.08 K. As to `COc1ccc(NC(=O)COC(=O)/C=C/c2cc(OC)c(OC)c(S(=O)(=O)N3CCc4ccccc43)c2)cc1S(=O)(=O)N1CCCCC1`, the “TSA(without NAD+) / Primary screening (TSA) / delta Tm (K)” value came to 0.02 K. As for `O=C1CCCN1C(=O)Cn1cnc2cc(Cl)ccc2c1=O`, the “TSA(without NAD+) / Primary screening (TSA) / delta Tm (K)” value is listed as -0.11 K. Then `Cc1ccc2[nH]c(SCC(=O)N3CCCC(C(N)=O)C3)nc2c1` (stereo not shown), with -0.18 K; and `CN(c1ccc(CNC(=O)c2cc[n+]([O-])cc2)cc1)C1CCCCC1`, with -0.07 K. For `NC(=O)c1cc(NC(=O)CN2CCCC2c2cccs2)cc(C(N)=O)c1` (stereo not shown) the value was -0.02 K; for `Cc1ccc2[nH]c3c(c2c1)CC(N1CC(CN)CC1C)CC3` (stereo not shown), -0.12 K; for `Cc1onc(-c2ccccc2)c1C(=O)NC1CCCc2ccccc21` (stereo not shown), 0.12 K.

With `O=C(NCc1cccc(C(F)(F)F)c1)c1sc2ccccc2c1Cl`, the “TSA(without NAD+) / Primary screening (TSA) / delta Tm (K)” value is given as -0.12 K. `Cc1nc(CN2CCCN(Cc3ccc(C(N)=O)cc3)CC2)no1`: the “TSA(without NAD+) / Primary screening (TSA) / delta Tm (K)” value worked out at 0.09 K. Take `CCCOc1ccc(C(=O)C2=C(O)C(=O)N(CCN3CCOCC3)C2c2cccs2)cc1` (stereo not shown): the “TSA(without NAD+) / Primary screening (TSA) / delta Tm (K)” value was -0.14 K. With `O=C1NC2(CCc3ccccc3C2)C(=O)N1Cc1nnc(-c2ccc(Cl)cc2)o1` (stereo not shown), the “TSA(without NAD+) / Primary screening (TSA) / delta Tm (K)” value is -0.03 K.

Regarding `COc1cc(C(=O)Nc2ncc(Cc3cccc(C)c3)s2)ccc1OCC(=O)N1CCOCC1`, the “TSA(without NAD+) / Primary screening (TSA) / delta Tm (K)” value is on record as -0.23 K. Then `Cc1cnc(C(=O)N2CCCC2C(=O)Nc2ccccc2)cn1` (stereo not shown), with -0.13 K; and `CCN1CCN(c2ccc(NC(=O)NC(C)CCc3ccc(O)cc3)c(C)c2)CC1` (stereo not shown), with -0.07 K.

Regarding `O=C1/C(=C/NNC(=O)C23CC4CC(CC(C4)C2)C3)c2ccccc2C(=O)N1Cc1ccccc1`, the “TSA(without NAD+) / Primary screening (TSA) / delta Tm (K)” value was 0.46 K.

Regarding `COC(=O)C[C@@H](C)OC(=O)c1cc(F)ccc1F`, the “TSA(without NAD+) / Primary screening (TSA) / delta Tm (K)” value is listed as -0.15 K.

As to `COc1ccccc1NS(=O)(=O)c1cccc(NC(=O)Cn2[nH]c(=O)c3ccccc3c2=O)c1`, the “TSA(without NAD+) / Primary screening (TSA) / delta Tm (K)” value worked out at 0.06 K. For `C=CCC(C)N` (stereo not shown) the value was -0.14 K; for `Cc1ccc2c(COC(=O)c3cccc(S(=O)(=O)N(C)c4ccccc4)c3)cc(=O)oc2c1C`, -0.02 K. For `Cc1sc2nc(-c3cccs3)nc(N3CCC(C(N)=O)CC3)c2c1C` the value was 0.58 K. For `NCC(CN)(CO)CO`, the “TSA(without NAD+) / Primary screening (TSA) / delta Tm (K)” value is 0.03 K. For `Cc1[nH]ccc1C(=O)N(C)C1CC2CCC(C1)N2C(=O)OC(C)(C)C` (stereo not shown) the value was -0.22 K; for `C=CCOc1cccc(C2C(C(=O)c3ccco3)=C(O)C(=O)N2CCCN2CCOCC2)c1` (stereo not shown), -0.08 K; for `Cc1ccc(C(=Nc2c(C)cc(C)cc2C)c2ccc(C)cc2)cc1`, -0.04 K. `Cc1csc2c(N3CCC4CCC(C3)N4C)ncnc12` (stereo not shown): the “TSA(without NAD+) / Primary screening (TSA) / delta Tm (K)” value was found to be 0.03 K. For `C=CCN(CC=C)C(CNc1ccc2nnnn2n1)C(C)C` (stereo not shown) the value was -0.33 K; for `O=C(c1n[nH]c2c1CCC2)N(CCc1ccccc1)Cc1ccncc1`, 0.06 K; for `O=C(Nc1cccc(S(=O)(=O)NCc2ccco2)c1)c1cc(-c2ccccc2)nc2ccccc12`, 0.15 K. `Cc1ccc(Cc2cnc(NC(=O)CC(c3ccccc3)c3ccccc3)s2)cc1`: the “TSA(without NAD+) / Primary screening (TSA) / delta Tm (K)” value is 0.03 K. In the case of `O=C(Nc1cccc(S(=O)(=O)NCc2ccco2)c1)C1CCN(C(=O)Nc2ccccc2)CC1`, the “TSA(without NAD+) / Primary screening (TSA) / delta Tm (K)” value is 0.02 K.

With `CC1CCN(C(=O)C23CC4CC(C2)CC(c2ccccc2)(C4)C3)CC1`, the “TSA(without NAD+) / Primary screening (TSA) / delta Tm (K)” value is -0.13 K. For `O=C1NC(C(=O)O)=CC(c2ccccc2C(F)(F)F)N1` (stereo not shown) the value was -0.27 K; for `COC(C)[C@@H](C)N` (stereo partly shown), -0.15 K. For `NC(=O)C1CCN(c2ncnc3cc(-c4ccc(Br)cc4)sc23)CC1` the value was -0.03 K; for `Cc1ccc(S(=O)(=O)N(C)c2ccc(C(=O)NCCCN3CCC(C(N)=O)CC3)cc2)cc1`, -0.31 K; for `Brc1cccc(-c2nc(CSc3nnc(NCc4ccco4)s3)cs2)c1`, 0.08 K.

As to `CC1CN=C(Nc2ccc(Cl)c(Cl)c2)S1` (stereo not shown), the “TSA(without NAD+) / Primary screening (TSA) / delta Tm (K)” value is reported as -0.08 K. Then `NC(=O)C1CCN(c2ncnc3c2c(-c2ccccc2)cn3-c2ccc(Cl)cc2)CC1`, with -0.13 K; and `O=C(Nc1cc(S(=O)(=O)N2CCOCC2)ccc1O)C1=COCCO1`, with -0.32 K. As to `O=C(Nc1cccc(S(=O)(=O)N2CCOCC2)c1)c1ccccc1Cc1ccccc1`, the “TSA(without NAD+) / Primary screening (TSA) / delta Tm (K)” value is reported as -0.13 K. For the compound `Cc1ncc(CN2CCC(Nc3ccc4nnnn4n3)C(C)C2)s1` (stereo not shown), the “TSA(without NAD+) / Primary screening (TSA) / delta Tm (K)” value amounted to 0.12 K. Then `Cc1ccc(C(C)(C)C)cc1SCC(=O)Nc1cc(C(N)=O)cc(C(N)=O)c1`, with 0.19 K; and `OCCNc1ccc2nnc(C(F)(F)F)n2n1`, with -0.13 K; and `CC(=O)c1c[nH]c(C(=O)NCCc2ccc(-c3csc(C)n3)s2)c1`, with -0.24 K.

As to `NC(=O)NC(CC(=O)OCC(=O)NC12CC3CC(CC(C3)C1)C2)c1cccc(Oc2ccccc2)c1` (stereo not shown), the “TSA(without NAD+) / Primary screening (TSA) / delta Tm (K)” value is -0.04 K. For the compound `COc1ccc2c(COC(=O)c3ccc(=O)n(Cc4ccccc4)n3)cc(=O)oc2c1`, the “TSA(without NAD+) / Primary screening (TSA) / delta Tm (K)” value was 0.06 K.

Turning to `CCOc1ccc(S(=O)(=O)N2CCOCC2)cc1NC(=O)C1=COCCO1`, the “TSA(without NAD+) / Primary screening (TSA) / delta Tm (K)” value is listed as -0.18 K. For `O=C1NCCN1c1cccc(N2C(=O)Cc3ccccc3C2=O)c1` the value was -0.24 K; for `Cn1ncc2c(N3CCC(C(=O)Nc4ccccc4O)CC3)ncnc21`, -0.02 K. Then `Cc1ccnc(NC(=O)C2CCN(C(=O)c3cccc(S(=O)(=O)NCC4CCCO4)c3)CC2)c1` (stereo not shown), with -0.02 K.

With `Cc1ccc(S(=O)(=O)CCC(=O)OCc2nnc(-c3ccc([N+](=O)[O-])cc3)o2)cc1`, the “TSA(without NAD+) / Primary screening (TSA) / delta Tm (K)” value is given as -0.02 K. For the compound `O=C(NC1=NCCS1)c1cc(Cl)ccc1O`, the “TSA(without NAD+) / Primary screening (TSA) / delta Tm (K)” value is -0.05 K.

In the case of `O=C(CCCNC(=O)c1ccc(Cl)cc1)Nc1cccc(S(=O)(=O)N2CCOCC2)c1`, the “TSA(without NAD+) / Primary screening (TSA) / delta Tm (K)” value was determined as 0.07 K.

For the compound `CCC1CCCCN1c1ncnc2c(C)csc12` (stereo not shown), the “TSA(without NAD+) / Primary screening (TSA) / delta Tm (K)” value stood at 0.22 K. For `NC(=O)C(Cc1ccccc1)NC(=O)CCc1nc2ccccc2[nH]1` (stereo not shown) the value was -0.17 K; for `C=CCn1c(SCC(=O)NC(C)c2ccco2)nc2ccsc2c1=O` (stereo not shown), -0.18 K. Then `Cc1nc2ccccc2c(C)c1C(=O)OCC(N)=O`, with -0.12 K; and `CC(C)c1ccc(C2(C)CC(=O)NC2=O)cc1` (stereo not shown), with -0.24 K. For `NC(=O)c1cncc(Oc2nc3ccccc3o2)c1` the value was -0.02 K; for `NCCS(=O)(=O)CCN`, -0.21 K. For `Cc1ccnc(NC(=O)C2CCN(c3nc(C)nc4scc(-c5cccs5)c34)CC2)c1`, the “TSA(without NAD+) / Primary screening (TSA) / delta Tm (K)” value is listed as -0.28 K. Then `CC(=C/c1ccccc1)/C=N/NC(=O)c1cc(-c2ccc(C)cc2)n[nH]1`, with 1.06 K. Then `CC(C)Cc1ccc(C(=O)C2CCN(C(=O)c3cnc4ccccc4n3)CC2)cc1`, with -0.23 K; and `CC(C)Oc1ccc(C(=O)C2=C(O)C(=O)N(CCCN3CCOCC3)C2c2cccs2)cc1` (stereo not shown), with -0.23 K.

In the case of `COc1ccc(C(=O)C2=C(O)C(=O)N(CCCN3CCOCC3)C2c2ccco2)cc1Cl` (stereo not shown), the “TSA(without NAD+) / Primary screening (TSA) / delta Tm (K)” value was 0.02 K. For `Cc1cc(NC(=O)CCc2nc3ccccc3[nH]2)ccc1N1CCCC1` the value was -0.08 K; for `O=S(=O)(/C=C/c1ccccc1)N1CCN(c2ncnc3sc4c(c23)CCCCC4)CC1`, -0.14 K. `CC(C)COc1ccc(C(=O)C2=C(O)C(=O)N(CCN3CCOCC3)C2c2cccnc2)cc1` (stereo not shown): the “TSA(without NAD+) / Primary screening (TSA) / delta Tm (K)” value was determined as 0.05 K. Regarding `C#CCCCN`, the “TSA(without NAD+) / Primary screening (TSA) / delta Tm (K)” value is listed as -0.05 K. For `O=C(O)[C@H](O)[C@@H](O)C(=O)O` the value was -0.08 K; for `CCOc1ccc(C2C(C(=O)c3cccc(OC)c3)=C(O)C(=O)N2CCCN2CCOCC2)cc1` (stereo not shown), -0.08 K. In the case of `COc1ccc(NC(=O)CSc2nnc(Nc3ccc(SC(F)F)cc3)s2)cc1OC`, the “TSA(without NAD+) / Primary screening (TSA) / delta Tm (K)” value was 0.73 K. For `O=C1NC(=S)NC(=O)C1=NNc1ccc(OC(F)F)cc1` the value was -0.15 K; for `Cc1nc2c3ccccc3nc(N3CCC(C4(C)NC(=O)NC4=O)CC3)n2n1` (stereo not shown), -0.15 K. For `N#C/C(=C\c1ccc(-c2ccc(Cl)c(C(F)(F)F)c2)o1)C(N)=S` the value was 0.12 K; for `C/C(=N/N)c1ccc2c(c1)-c1ccccc1C2`, -0.01 K.

As to `O=C(Nc1ccccc1O)C1CCN(c2ncnc3scc(-c4ccc(F)cc4)c23)CC1`, the “TSA(without NAD+) / Primary screening (TSA) / delta Tm (K)” value is given as -0.18 K. Turning to `Cc1ccc(C23CC4CC(CC(C(=O)N5CCN(S(=O)(=O)c6ccccc6)CC5)(C4)C2)C3)cc1`, the “TSA(without NAD+) / Primary screening (TSA) / delta Tm (K)” value is listed as -0.27 K.

Turning to `Cc1nc(CN2CCN(S(=O)(=O)c3cc(C(N)=O)n(C)c3)CC2)cs1`, the “TSA(without NAD+) / Primary screening (TSA) / delta Tm (K)” value is given as -0.08 K. Then `Cc1cnn(C2CCCN(C(=O)c3ccc(C(N)=S)cc3)C2)c1` (stereo not shown), with -0.24 K.
